{
  "sequences": {"note": "The chains behind the UniProt entries cited, without tags or fusion partners. Residues count along the entry.", "UniProt P07724, residues 25-608": "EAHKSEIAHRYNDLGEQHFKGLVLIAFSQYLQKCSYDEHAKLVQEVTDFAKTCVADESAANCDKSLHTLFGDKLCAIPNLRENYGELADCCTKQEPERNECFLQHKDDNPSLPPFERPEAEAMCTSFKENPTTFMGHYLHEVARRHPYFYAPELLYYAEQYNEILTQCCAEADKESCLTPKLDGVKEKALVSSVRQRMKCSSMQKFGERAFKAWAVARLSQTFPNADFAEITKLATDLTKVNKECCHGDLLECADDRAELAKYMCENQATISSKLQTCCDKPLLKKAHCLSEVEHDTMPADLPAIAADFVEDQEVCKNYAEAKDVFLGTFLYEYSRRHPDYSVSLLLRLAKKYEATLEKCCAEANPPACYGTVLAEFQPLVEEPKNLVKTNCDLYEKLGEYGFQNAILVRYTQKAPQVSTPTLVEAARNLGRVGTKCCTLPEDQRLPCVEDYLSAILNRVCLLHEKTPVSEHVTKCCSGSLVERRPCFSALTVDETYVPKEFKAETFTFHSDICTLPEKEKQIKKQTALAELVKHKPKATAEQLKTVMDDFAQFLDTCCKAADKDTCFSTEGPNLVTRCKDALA", "UniProt P53395, residues 62-482": "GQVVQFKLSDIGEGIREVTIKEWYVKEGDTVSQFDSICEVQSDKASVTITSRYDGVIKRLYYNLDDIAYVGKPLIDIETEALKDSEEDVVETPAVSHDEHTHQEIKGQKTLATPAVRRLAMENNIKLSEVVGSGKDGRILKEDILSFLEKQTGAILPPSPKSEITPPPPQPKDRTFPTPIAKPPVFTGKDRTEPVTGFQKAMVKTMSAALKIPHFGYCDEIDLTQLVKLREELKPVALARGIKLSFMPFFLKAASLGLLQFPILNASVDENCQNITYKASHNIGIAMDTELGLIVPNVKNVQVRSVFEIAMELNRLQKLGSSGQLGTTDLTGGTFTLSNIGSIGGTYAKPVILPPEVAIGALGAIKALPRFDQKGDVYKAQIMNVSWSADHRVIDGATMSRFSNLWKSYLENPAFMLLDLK", "UniProt P11182, residues 62-482": "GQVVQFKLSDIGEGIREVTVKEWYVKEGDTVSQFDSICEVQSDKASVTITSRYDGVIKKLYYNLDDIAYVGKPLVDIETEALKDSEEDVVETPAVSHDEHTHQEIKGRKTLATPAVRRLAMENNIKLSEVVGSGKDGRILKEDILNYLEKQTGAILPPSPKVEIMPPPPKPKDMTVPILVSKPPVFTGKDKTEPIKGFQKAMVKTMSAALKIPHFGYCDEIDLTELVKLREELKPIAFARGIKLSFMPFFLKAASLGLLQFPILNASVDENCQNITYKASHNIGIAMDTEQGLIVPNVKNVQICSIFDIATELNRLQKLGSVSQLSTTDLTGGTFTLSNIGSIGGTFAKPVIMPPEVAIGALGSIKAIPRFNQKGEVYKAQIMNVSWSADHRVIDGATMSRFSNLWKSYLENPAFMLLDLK"},
  "source": "paper PMC4323032",
  "molecules": {"B1": {"name": "Peroxiredoxin V (protein, UniProt P99029 49-210)", "chain": "MAPIKVGDAIPSVEVFEGEPGKKVNLAELFKGKKGVLFGVPGAFTPGCSKTHLPGFVEQAGALKAKGAQVVACLSVNDVFVIEEWGRAHQAEGKVRLLADPTGAFGKATDLLLDDSLVSLFGNRRLKRFSMVIDNGIVKALNVEPDGTGLTCSLAPNILSQL"}, "B2": {"name": "HA-tagged wild-type Prdx V (protein, UniProt P99029 49-210)", "chain": "MAPIKVGDAIPSVEVFEGEPGKKVNLAELFKGKKGVLFGVPGAFTPGCSKTHLPGFVEQAGALKAKGAQVVACLSVNDVFVIEEWGRAHQAEGKVRLLADPTGAFGKATDLLLDDSLVSLFGNRRLKRFSMVIDNGIVKALNVEPDGTGLTCSLAPNILSQL"}, "B3": {"name": "HA-tagged Prdx V C152S (protein, UniProt P99029 49-210)", "chain": "MAPIKVGDAIPSVEVFEGEPGKKVNLAELFKGKKGVLFGVPGAFTPGCSKTHLPGFVEQAGALKAKGAQVVACLSVNDVFVIEEWGRAHQAEGKVRLLADPTGAFGKATDLLLDDSLVSLFGNRRLKRFSMVIDNGIVKALNVEPDGTGLTSSLAPNILSQL"}, "B4": {"name": "HA-tagged Prdx V C73S (protein, UniProt P99029 49-210)", "chain": "MAPIKVGDAIPSVEVFEGEPGKKVNLAELFKGKKGVLFGVPGAFTPGCSKTHLPGFVEQAGALKAKGAQVVASLSVNDVFVIEEWGRAHQAEGKVRLLADPTGAFGKATDLLLDDSLVSLFGNRRLKRFSMVIDNGIVKALNVEPDGTGLTCSLAPNILSQL"}},
  "key": {"[1]": {"biological_target": "T1, HA-tagged wild-type Prdx V (mouse) (UniProt P99029)", "T1 sequence": "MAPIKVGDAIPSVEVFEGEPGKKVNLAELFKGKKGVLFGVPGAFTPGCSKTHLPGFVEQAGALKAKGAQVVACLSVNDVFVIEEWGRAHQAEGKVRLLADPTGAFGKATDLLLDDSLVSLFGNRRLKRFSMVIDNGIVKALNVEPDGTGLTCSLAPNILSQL", "assay": "co-IP; reverse immunoprecipitation: HEK293 co-transfected with myc-DBT and HA-Prdx V (WT or cysteine mutant), normoxia or hypoxia; precipitated through HA-Prdx V, myc-DBT detected"}, "[2]": {"biological_target": "T2, HA-tagged Prdx V C73S (mouse) (UniProt P99029)", "T2 sequence": "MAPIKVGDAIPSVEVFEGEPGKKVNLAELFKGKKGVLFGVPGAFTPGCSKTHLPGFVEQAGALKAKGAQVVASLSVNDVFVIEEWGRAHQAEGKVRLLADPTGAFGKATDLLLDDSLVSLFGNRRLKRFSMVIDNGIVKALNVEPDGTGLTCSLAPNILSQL", "assay": "co-IP; reverse immunoprecipitation: HEK293 co-transfected with myc-DBT and HA-Prdx V (WT or cysteine mutant), normoxia or hypoxia; precipitated through HA-Prdx V, myc-DBT detected"}, "[3]": {"biological_target": "T3, Propionyl CoA carboxylase beta chain, mitochondrial (mouse (endogenous in kidney)) (UniProt Q99MN9)", "T3 sequence": "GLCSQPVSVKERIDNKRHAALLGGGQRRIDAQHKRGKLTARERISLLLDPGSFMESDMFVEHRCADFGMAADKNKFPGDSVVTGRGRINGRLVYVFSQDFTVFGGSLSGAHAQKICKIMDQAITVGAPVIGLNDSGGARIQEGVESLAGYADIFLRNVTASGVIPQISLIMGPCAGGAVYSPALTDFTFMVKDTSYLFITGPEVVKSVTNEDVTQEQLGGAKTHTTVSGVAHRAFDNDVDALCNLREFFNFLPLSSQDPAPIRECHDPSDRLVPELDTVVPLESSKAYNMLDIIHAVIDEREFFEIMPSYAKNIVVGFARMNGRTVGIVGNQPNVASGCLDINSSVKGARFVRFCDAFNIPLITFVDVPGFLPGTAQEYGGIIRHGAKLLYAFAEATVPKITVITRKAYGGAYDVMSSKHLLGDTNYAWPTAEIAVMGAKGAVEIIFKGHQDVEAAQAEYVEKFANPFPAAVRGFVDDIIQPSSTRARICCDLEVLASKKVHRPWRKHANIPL", "assay": "co-IP; endogenous proteins of normoxic and hypoxic mouse kidney lysate; precipitated with antibody to DBT, Rab43, Pccb or Alb, blot probed with Prdx V antibody"}, "[4]": {"biological_target": "Serum albumin (mouse (endogenous in kidney)) (UniProt P07724)", "assay": "co-IP; endogenous proteins of normoxic and hypoxic mouse kidney lysate; precipitated with antibody to DBT, Rab43, Pccb or Alb, blot probed with Prdx V antibody"}, "[5]": {"biological_target": "Dihydrolipoamide branched chain transacylase E2 (lipoamide acyltransferase component of branched chain α-keto acid dehydrogenase complex, mitochondrial) (mouse (endogenous in kidney)) (UniProt P53395)", "assay": "co-IP; endogenous proteins of normoxic and hypoxic mouse kidney lysate; precipitated with antibody to DBT, Rab43, Pccb or Alb, blot probed with Prdx V antibody"}, "[6]": {"biological_target": "T4, Ras related protein Rab 43 isoform b (mouse (endogenous in kidney)) (UniProt Q8CG50)", "T4 sequence": "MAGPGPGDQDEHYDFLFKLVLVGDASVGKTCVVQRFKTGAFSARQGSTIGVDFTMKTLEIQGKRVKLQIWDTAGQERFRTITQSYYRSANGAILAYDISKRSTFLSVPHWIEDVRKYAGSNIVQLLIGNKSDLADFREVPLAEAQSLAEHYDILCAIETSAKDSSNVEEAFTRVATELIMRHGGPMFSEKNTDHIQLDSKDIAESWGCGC", "assay": "co-IP; endogenous proteins of normoxic and hypoxic mouse kidney lysate; precipitated with antibody to DBT, Rab43, Pccb or Alb, blot probed with Prdx V antibody"}, "myc-tagged DBT (human)": {"biological_target": "myc-tagged DBT (human) (UniProt P11182)", "assay": "co-IP; HEK293 co-transfected with myc-DBT and HA-Prdx V (WT or cysteine mutant), normoxia or hypoxia (1% O2, 6 h); total lysate precipitated with anti-myc-conjugated agarose, HA-Prdx V detected"}},
  "note": "These are yes or no findings as the source states them, for the method shown. Binding seen in cells or lysates may run through a third protein. Some entries that bind do so weakly or less than the wild type. For part of these data: Sequences can lack the tags named with a protein.",
  "data": [
    {"molecule": "myc-tagged DBT (from UniProt P11182 62-482)", "values": [
      {"measurement": "binding", "setting": "[1]", "value": "binds"},
      {"measurement": "binding", "setting": "[2]", "value": "binds"}
    ]},
    {"molecule": "B1", "values": [
      {"measurement": "binding", "setting": "[3]", "value": "binds"},
      {"measurement": "binding", "setting": "[4]", "value": "binds"},
      {"measurement": "binding", "setting": "[5]", "value": "binds"},
      {"measurement": "binding", "setting": "[6]", "value": "binds"}
    ]},
    {"molecule": "B2", "values": [
      {"measurement": "binding", "setting": "myc-tagged DBT (human)", "value": "binds"}
    ]},
    {"molecule": "B3", "values": [
      {"measurement": "binding", "setting": "myc-tagged DBT (human)", "value": "binds"}
    ]},
    {"molecule": "B4", "values": [
      {"measurement": "binding", "setting": "myc-tagged DBT (human)", "value": "binds"}
    ]}
  ]
}
